{"sequences": {"note": "Amino acid sequences for entries named in this document (tags omitted). A change or cut given only in a name is not applied to a line headed by its entry.", "UniProt Q00613": "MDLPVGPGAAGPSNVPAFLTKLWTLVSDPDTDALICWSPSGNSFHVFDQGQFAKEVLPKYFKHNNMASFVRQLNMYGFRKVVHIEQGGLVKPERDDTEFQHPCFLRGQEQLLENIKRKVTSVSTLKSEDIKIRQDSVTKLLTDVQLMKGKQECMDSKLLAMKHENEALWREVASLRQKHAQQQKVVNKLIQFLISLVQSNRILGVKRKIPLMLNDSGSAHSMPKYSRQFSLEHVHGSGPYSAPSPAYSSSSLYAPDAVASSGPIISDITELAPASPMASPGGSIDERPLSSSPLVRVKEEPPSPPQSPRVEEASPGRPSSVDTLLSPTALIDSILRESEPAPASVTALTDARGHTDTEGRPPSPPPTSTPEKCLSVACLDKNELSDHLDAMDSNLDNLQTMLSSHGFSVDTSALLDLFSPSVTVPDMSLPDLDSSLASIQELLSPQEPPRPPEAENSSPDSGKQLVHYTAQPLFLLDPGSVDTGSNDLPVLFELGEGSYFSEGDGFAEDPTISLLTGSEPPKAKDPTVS"}, "source": "paper PMC7862700", "note": "Only a part is listed here, and it is no random draw. For some assays here: At the low end of the ranking the order means little. This is one part of the list. For some assays here: Construct or isoform of the protein are uncertain.", "data": [{"target": "HSF1 (UniProt Q00613)", "experiment": "DAPPL (digital affinity profiling via proximity ligation, sequencing)", "settings": "10 mM Tris-HCl pH 7.5, 50 mM NaCl, 1 mM DTT, 4% glycerol, room temperature, 30 min; GST-TFs on glutathione beads, 16-mer random dsDNA library, 0.1% …; high values mean tight binding; double strand, one strand shown; scale: fold enrichment (6-mer frequency, TF over GST control)", "values": [{"sequence": "CCTCAA", "binding signal": 1.2}, {"sequence": "TTCACG", "binding signal": 1.51}, {"sequence": "GTCACT", "binding signal": 0.841}, {"sequence": "CCCTTG", "binding signal": 0.976}, {"sequence": "CTCACC", "binding signal": 0.995}, {"sequence": "AATATG", "binding signal": 1.12}, {"sequence": "GTAGCA", "binding signal": 0.866}, {"sequence": "GACTGC", "binding signal": 0.779}, {"sequence": "TAAGAA", "binding signal": 1.77}, {"sequence": "GTAATG", "binding signal": 0.934}, {"sequence": "GGCTAT", "binding signal": 0.921}, {"sequence": "CGCCTG", "binding signal": 0.969}, {"sequence": "GAAACC", "binding signal": 0.807}, {"sequence": "ACTCAA", "binding signal": 1.07}, {"sequence": "GTAGTT", "binding signal": 0.818}, {"sequence": "CGACGC", "binding signal": 0.917}, {"sequence": "GGTATC", "binding signal": 0.839}, {"sequence": "TCAGTA", "binding signal": 0.921}, {"sequence": "GTTGGT", "binding signal": 0.715}, {"sequence": "TAGAAC", "binding signal": 2.74}, {"sequence": "TCATAT", "binding signal": 1.15}, {"sequence": "AAAAAT", "binding signal": 1.5}, {"sequence": "CGCCAC", "binding signal": 0.748}, {"sequence": "AACGGC", "binding signal": 0.95}, {"sequence": "CTACAC", "binding signal": 1.11}, {"sequence": "TTGTCA", "binding signal": 0.94}, {"sequence": "CATTGA", "binding signal": 0.857}, {"sequence": "CTTTAG", "binding signal": 1.37}, {"sequence": "GCCGCA", "binding signal": 0.817}, {"sequence": "CATGGG", "binding signal": 0.857}, {"sequence": "TGTCGC", "binding signal": 0.683}, {"sequence": "AACACC", "binding signal": 0.985}, {"sequence": "AAGCGC", "binding signal": 1.08}, {"sequence": "TGTTGG", "binding signal": 0.805}, {"sequence": "ACTTGA", "binding signal": 0.906}, {"sequence": "TTTGTA", "binding signal": 1.65}, {"sequence": "TGATGT", "binding signal": 0.987}, {"sequence": "ACGAGC", "binding signal": 0.925}, {"sequence": "ATATAG", "binding signal": 1.19}, {"sequence": "CTTTGG", "binding signal": 1.26}]}, {"target": "T1, ELF2 (UniProt Q15723)", "T1 sequence": "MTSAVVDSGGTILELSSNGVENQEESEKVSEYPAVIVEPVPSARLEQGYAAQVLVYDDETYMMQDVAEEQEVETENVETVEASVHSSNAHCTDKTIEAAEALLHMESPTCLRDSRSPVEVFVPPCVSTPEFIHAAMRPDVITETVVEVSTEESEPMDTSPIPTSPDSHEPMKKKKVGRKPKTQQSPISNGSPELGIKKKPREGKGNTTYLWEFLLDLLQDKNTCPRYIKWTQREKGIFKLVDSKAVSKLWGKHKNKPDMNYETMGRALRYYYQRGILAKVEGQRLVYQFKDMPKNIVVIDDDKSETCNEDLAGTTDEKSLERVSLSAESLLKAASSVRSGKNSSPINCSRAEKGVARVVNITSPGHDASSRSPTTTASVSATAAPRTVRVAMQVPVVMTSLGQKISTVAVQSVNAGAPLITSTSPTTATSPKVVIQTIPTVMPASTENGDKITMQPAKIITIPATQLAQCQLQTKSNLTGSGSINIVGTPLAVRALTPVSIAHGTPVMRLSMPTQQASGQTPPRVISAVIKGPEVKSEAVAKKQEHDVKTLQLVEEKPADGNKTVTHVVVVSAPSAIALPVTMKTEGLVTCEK", "experiment": "DAPPL (digital affinity profiling via proximity ligation, sequencing)", "settings": "10 mM Tris-HCl pH 7.5, 50 mM NaCl, 1 mM DTT, 4% glycerol, room temperature, 30 min; GST-TFs on glutathione beads, 16-mer random dsDNA library, 0.1% …; high values mean tight binding; double strand, one strand shown; scale: fold enrichment (6-mer frequency, TF over GST control)", "values": [{"sequence": "CCTCAA", "binding signal": 1.35}, {"sequence": "TTCACG", "binding signal": 1.38}, {"sequence": "GTCACT", "binding signal": 1.09}, {"sequence": "CCCTTG", "binding signal": 1.12}, {"sequence": "CTCACC", "binding signal": 1.15}, {"sequence": "AATATG", "binding signal": 1.14}, {"sequence": "GTAGCA", "binding signal": 1.1}, {"sequence": "GACTGC", "binding signal": 0.953}, {"sequence": "TAAGAA", "binding signal": 1.03}, {"sequence": "GTAATG", "binding signal": 1.07}, {"sequence": "GGCTAT", "binding signal": 0.976}, {"sequence": "CGCCTG", "binding signal": 1.03}, {"sequence": "GAAACC", "binding signal": 1.09}, {"sequence": "ACTCAA", "binding signal": 1.15}, {"sequence": "GTAGTT", "binding signal": 1.06}, {"sequence": "CGACGC", "binding signal": 1.02}, {"sequence": "GGTATC", "binding signal": 1.07}, {"sequence": "TCAGTA", "binding signal": 0.927}, {"sequence": "GTTGGT", "binding signal": 0.915}, {"sequence": "TAGAAC", "binding signal": 0.989}, {"sequence": "TCATAT", "binding signal": 1.21}, {"sequence": "AAAAAT", "binding signal": 1.34}, {"sequence": "CGCCAC", "binding signal": 1}, {"sequence": "AACGGC", "binding signal": 1.13}, {"sequence": "CTACAC", "binding signal": 1.25}, {"sequence": "TTGTCA", "binding signal": 1.07}, {"sequence": "CATTGA", "binding signal": 0.938}, {"sequence": "CTTTAG", "binding signal": 1.13}, {"sequence": "GCCGCA", "binding signal": 0.961}, {"sequence": "CATGGG", "binding signal": 0.965}, {"sequence": "TGTCGC", "binding signal": 1}, {"sequence": "AACACC", "binding signal": 1.08}, {"sequence": "AAGCGC", "binding signal": 1.2}, {"sequence": "TGTTGG", "binding signal": 0.918}, {"sequence": "ACTTGA", "binding signal": 0.897}, {"sequence": "TTTGTA", "binding signal": 1.49}, {"sequence": "TGATGT", "binding signal": 1.15}, {"sequence": "ACGAGC", "binding signal": 0.918}, {"sequence": "ATATAG", "binding signal": 1.17}, {"sequence": "CTTTGG", "binding signal": 1.05}]}]}
